{
  "source": "PubChem BioAssay (NCATS)",
  "note": "This list was built around the results that the source calls inconclusive (neither active nor inactive); the mix of calls is not that of the screen. Potencies beside an inconclusive call are fits to weak or partial responses and may not hold up. The source made the active and inactive calls. Calls follow the shape of the dose curve; as a rule, active = well fitted activation curve with a large enough effect; inconclusive = small, poorly fitted or top-dose-only effect, or another doubt; inactive = no such curve, though single readings can be large or run the other way. Potency is read from the fitted curve at half-maximal effect.",
  "data": [
    {"molecular_target": "Rap guanine nucleotide exchange factor 3 (Homo sapiens) (UniProt O95398)", "test": "Counterscreen qHTS for agonist of cAMP-regulated guanine nucleotide exchange factor 3 (EPAC1) (AID 1645889); also: nearly all actives have a fitted effect of over 40% in size; as to activation: % of control where 0% means no effect", "conditions": "EPAC1 Rap1B-BODIPY-GDP exchange, fluorescence; activation: at 154 µM (top of the series) unless noted", "how_it_was_run": "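Measured: fluorescence of BODIPY-GDP bound to Rap1B, which falls as exchange proceeds. Conditions include 50 uM competing GDP, 5 and 30 min reads, and a later cAMP challenge for antagonist detection.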", "values": [
      {"smiles": "CCCCn1c(N)c(N(CCOC)C(=O)c2ccc(C)c(S(=O)(=O)N3CCCCC3)c2)c(=O)[nH]c1=O", "activation": "inconclusive: 24% [activator]"},
      {"smiles": "Cc1ccc(C)c(COC(=O)c2cc(S(=O)(=O)N3CCCCC3)ccc2N2CCOCC2)c1", "Potency": "inconclusive: 0.891 µM [activator, full curve, poor fit]"},
      {"smiles": "CCc1cccc2c(C(=O)COC(=O)c3nccnc3N)c[nH]c12", "activation": "inconclusive: 31.5% [activator]"},
      {"smiles": "CC(C)(C)C(=O)NCc1ccc(C(=O)CN2C(=O)NC3(CCCC3)C2=O)s1", "activation": "inactive: 24.9%"},
      {"smiles": "O=C(c1ccco1)N(Cc1ccc([N+](=O)[O-])cc1)c1ccc(Cl)cc1", "Potency": "inconclusive: 11.2 µM [activator, partial curve, poor fit]"},
      {"smiles": "COC1C(CO)OC(n2c3c(Cl)cccc3c3c4c(c5c6cccc(Cl)c6[nH]c5c32)C(=O)NC4=O)C(O)C1O", "note": "(stereo not given)", "Potency": "inconclusive: 7.08 µM [activator, full curve]"},
      {"smiles": "COc1ccccc1Oc1ccnc2cc(Cl)ccc12", "activation": "inactive: 5.9% [at 30.8 µM]"},
      {"smiles": "COc1ccc(S(=O)(=O)N2CCC[C@H]2C(=O)N2CCC[C@H]2C(=O)NCc2ccccc2)cc1C", "activation": "inconclusive: 52.9% [activator] [at 30.8 µM]"},
      {"smiles": "O=C(C1CC1)N1CCN(c2ccc([N+](=O)[O-])cc2-n2cccc2)CC1", "activation": "inactive: 6.18% [at 30.8 µM]"},
      {"smiles": "Nc1ncnc2c1ncn2[C@@H]1O[C@H](C(=O)N[C@H]2c3ccccc3C[C@H]2OC=O)[C@@H](O)[C@H]1O", "activation": "inconclusive: 30.8% [activator]"}
    ]}
  ]
}
